Test results as given in the supplement of paper PMC8728848.
The list shows a part of the results.

Assays:
Assay in all cases: glycan array binding signal (z-score within array); higher = stronger binding
Details in all cases: glycan notation: IUPAC condensed, linker removed
[1] = target: Neu5Ac(a2-6)Gal(b1-3)GlcNAc(b1-3)[Gal(b1-4)GlcNAc(b1-6)]Gal(b1-4)Glc
Procedure, shortened: (§1)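 The Consortium for Functional Glycomics database supplied 3228 glycan arrays, of which those lacking an available protein sequence were dropped. The binding signal, a within-array Z-score, was averaged across arrays of the same protein sequence and across linkers. Negative scores can be read as non-binding.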

Neu5Ac(a2-6)Gal(b1-4)Glc = target: Neu5Ac(a2-6)Gal(b1-4)Glc
Procedure, shortened: as §1

[2] = target: Neu5Ac(a2-6)Gal(b1-4)GlcNAc
Procedure, shortened: as §1

[3] = target: Neu5Ac(a2-6)Gal(b1-4)GlcNAc(b1-2)Man
Procedure, shortened: as §1

[4] = target: Neu5Ac(a2-6)Gal(b1-4)GlcNAc(b1-2)Man(a1-3)Man(b1-4)GlcNAc(b1-4)GlcNAc
Procedure, shortened: as §1

[5] = target: Neu5Ac(a2-6)Gal(b1-4)GlcNAc(b1-2)Man(a1-3)[Gal(b1-4)GlcNAc(b1-2)Man(a1-6)]Man(b1-4)GlcNAc(b1-4)GlcNAc
Procedure, shortened: as §1

[6] = target: Neu5Ac(a2-6)Gal(b1-4)GlcNAc(b1-2)Man(a1-3)[GlcNAc(b1-2)Man(a1-6)]Man(b1-4)GlcNAc(b1-4)GlcNAc
Procedure, shortened: as §1

[7] = target: Neu5Ac(a2-6)Gal(b1-4)GlcNAc(b1-2)Man(a1-3)[GlcNAc(b1-4)][Neu5Ac(a2-6)Gal(b1-4)GlcNAc(b1-2)Man(a1-6)]Man(b1-4)GlcNAc(b1-4)GlcNAc
Procedure, shortened: as §1

[8] = target: Neu5Ac(a2-6)Gal(b1-4)GlcNAc(b1-2)Man(a1-3)[Man(a1-6)]Man(b1-4)GlcNAc(b1-4)GlcNAc
Procedure, shortened: as §1

[9] = target: Neu5Ac(a2-6)Gal(b1-4)GlcNAc(b1-2)Man(a1-3)[Neu5Ac(a2-3)Gal(b1-4)GlcNAc(b1-2)Man(a1-6)]Man(b1-4)GlcNAc(b1-4)GlcNAc
Procedure, shortened: as §1

[10] = target: Neu5Ac(a2-6)Gal(b1-4)GlcNAc(b1-2)Man(a1-3)[Neu5Ac(a2-6)Gal(b1-4)GlcNAc(b1-2)Man(a1-6)]Man(b1-4)GlcNAc(b1-4)GlcNAc
Procedure, shortened: as §1

[11] = target: Neu5Ac(a2-6)Gal(b1-4)GlcNAc(b1-2)Man(a1-3)[Neu5Ac(a2-6)Gal(b1-4)GlcNAc(b1-2)Man(a1-6)]Man(b1-4)GlcNAc(b1-4)[Fuc(a1-6)]GlcNAc
Procedure, shortened: as §1

[12] = target: Neu5Ac(a2-6)Gal(b1-4)GlcNAc(b1-2)Man(a1-6)Man(b1-4)GlcNAc(b1-4)GlcNAc
Procedure, shortened: as §1

[13] = target: Neu5Ac(a2-6)Gal(b1-4)GlcNAc(b1-2)Man(a1-6)[Gal(b1-4)GlcNAc(b1-2)Man(a1-3)]Man(b1-4)GlcNAc(b1-4)GlcNAc
Procedure, shortened: as §1

[14] = target: Neu5Ac(a2-6)Gal(b1-4)GlcNAc(b1-2)Man(a1-6)[GlcNAc(b1-2)Man(a1-3)]Man(b1-4)GlcNAc(b1-4)GlcNAc
Procedure, shortened: as §1

[15] = target: Neu5Ac(a2-6)Gal(b1-4)GlcNAc(b1-2)Man(a1-6)[Man(a1-3)]Man(b1-4)GlcNAc(b1-4)GlcNAc
Procedure, shortened: as §1

[16] = target: Neu5Ac(a2-6)Gal(b1-4)GlcNAc(b1-2)[Neu5Ac(a2-6)Gal(b1-4)GlcNAc(b1-4)]Man(a1-3)[GlcNAc(b1-4)][Neu5Ac(a2-6)Gal(b1-4)GlcNAc(b1-2)[Neu5Ac(a2-6)Gal(b1-4)GlcNAc(b1-6)]Man(a1-6)]Man(b1-4)GlcNAc(b1-4)GlcNAc
Procedure, shortened: as §1

[17] = target: Neu5Ac(a2-6)Gal(b1-4)GlcNAc(b1-2)[Neu5Ac(a2-6)Gal(b1-4)GlcNAc(b1-4)]Man(a1-3)[GlcNAc(b1-4)][Neu5Ac(a2-6)Gal(b1-4)GlcNAc(b1-4)Man(a1-6)]Man(b1-4)GlcNAc(b1-4)GlcNAc
Procedure, shortened: as §1

[18] = target: Neu5Ac(a2-6)Gal(b1-4)GlcNAc(b1-2)[Neu5Ac(a2-6)Gal(b1-4)GlcNAc(b1-6)]Man(a1-6)[Neu5Ac(a2-6)Gal(b1-4)GlcNAc(b1-2)Man(a1-3)][GlcNAc(b1-4)]Man(b1-4)GlcNAc(b1-4)GlcNAc
Procedure, shortened: as §1

[19] = target: Neu5Ac(a2-6)Gal(b1-4)GlcNAc(b1-3)Gal(b1-3)GlcNAc
Procedure, shortened: as §1

[20] = target: Neu5Ac(a2-6)Gal(b1-4)GlcNAc(b1-3)Gal(b1-4)GlcNAc
Procedure, shortened: as §1

[21] = target: Neu5Ac(a2-6)Gal(b1-4)GlcNAc(b1-3)Gal(b1-4)GlcNAc(b1-2)Man(a1-3)[Neu5Ac(a2-6)Gal(b1-4)GlcNAc(b1-3)Gal(b1-4)GlcNAc(b1-2)Man(a1-6)]GalNAc
Procedure, shortened: as §1

[22] = target: Neu5Ac(a2-6)Gal(b1-4)GlcNAc(b1-3)Gal(b1-4)GlcNAc(b1-3)Gal(b1-4)GlcNAc
Procedure, shortened: as §1

[23] = target: Neu5Ac(a2-6)Gal(b1-4)GlcNAc(b1-3)Gal(b1-4)GlcNAc(b1-3)Gal(b1-4)GlcNAc(b1-2)Man(a1-3)[Neu5Ac(a2-6)Gal(b1-4)GlcNAc(b1-3)Gal(b1-4)GlcNAc(b1-3)Gal(b1-4)GlcNAc(b1-2)Man(a1-6)]GalNAc
Procedure, shortened: as §1

[24] = target: Neu5Ac(a2-6)Gal(b1-4)GlcNAc(b1-3)Gal(b1-4)GlcNAc(b1-3)GalNAc
Procedure, shortened: as §1

[25] = target: Neu5Ac(a2-6)Gal(b1-4)GlcNAc(b1-3)Gal(b1-4)GlcNAc(b1-3)[Neu5Ac(a2-6)Gal(b1-4)GlcNAc(b1-3)Gal(b1-4)GlcNAc(b1-6)]GalNAc
Procedure, shortened: as §1

[26] = target: Neu5Ac(a2-6)Gal(b1-4)GlcNAc(b1-3)Gal(b1-4)GlcNAc(b1-6)[Gal(b1-3)]GalNAc
Procedure, shortened: as §1

[27] = target: Neu5Ac(a2-6)Gal(b1-4)GlcNAc(b1-3)Gal(b1-4)[Fuc(a1-3)]GlcNAc(b1-3)Gal(b1-4)[Fuc(a1-3)]GlcNAc
Procedure, shortened: as §1

[28] = target: Neu5Ac(a2-6)Gal(b1-4)GlcNAc(b1-3)GalNAc
Procedure, shortened: as §1

[29] = target: Neu5Ac(a2-6)Gal(b1-4)GlcNAc(b1-3)[Neu5Ac(a2-6)Gal(b1-4)GlcNAc(b1-6)]GalNAc
Procedure, shortened: as §1

[30] = target: Neu5Ac(a2-6)Gal(b1-4)GlcNAc(b1-6)GalNAc
Procedure, shortened: as §1

[31] = target: Neu5Ac(a2-6)Gal(b1-4)GlcNAc(b1-6)[Gal(b1-3)GlcNAc(b1-3)]Gal(b1-4)Glc
Procedure, shortened: as §1

[32] = target: Neu5Ac(a2-6)Gal(b1-4)GlcNAc(b1-6)[Gal(b1-3)]GalNAc
Procedure, shortened: as §1

[33] = target: Neu5Ac(a2-6)Gal(b1-4)GlcNAc6S
Procedure, shortened: as §1

Neu5Ac(a2-6)GalNAc = target: Neu5Ac(a2-6)GalNAc
Procedure, shortened: as §1

[34] = target: Neu5Ac(a2-6)GalNAc(b1-4)GlcNAc
Procedure, shortened: as §1

[35] = target: Neu5Ac(a2-6)GalNAc(b1-4)GlcNAc6S
Procedure, shortened: as §1

[36] = target: Neu5Ac(a2-6)GlcNAc(b1-4)GlcNAc
Procedure, shortened: as §1

B1: SJCP1531 (Schistosoma japonicum) (protein)
chain: MFKVRIINLVNISTVLLLINLLQTKSQVNVEQLVTVLEVNIKAQLKNKTTEVLVEWNPLYQDNSMPEYRKLLDETCKLFLPFVNEKVPPSTYGGECTNANFSEAPQDGSYSRVNAELRLIYKYSDNPQIQTDRLQDDLNDREEFITSESSFVAYNPKFTVKIEKLFIPISESQTTPPPTTAKNDASKKDDDDNGGEDSKAPIDTFAMTASGNKGKKDDDDNGGEDSKAPIDTFAMTASGSKDERSTWTIIGIITLVVLIFVVIGGGITVFVKRC
[1]
  glycan array binding signal (z-score): -0.834
Neu5Ac(a2-6)Gal(b1-4)Glc
  glycan array binding signal (z-score): -1.21
[2]
  glycan array binding signal (z-score): -0.219
[3]
  glycan array binding signal (z-score): 0.253
[4]
  glycan array binding signal (z-score): 1.23
[5]
  glycan array binding signal (z-score): -0.959
[6]
  glycan array binding signal (z-score): -0.354
[7]
  glycan array binding signal (z-score): 0.333
[8]
  glycan array binding signal (z-score): -0.373
[9]
  glycan array binding signal (z-score): -0.577
[10]
  glycan array binding signal (z-score): 0.54
[11]
  glycan array binding signal (z-score): 0.85
[12]
  glycan array binding signal (z-score): -0.187
[13]
  glycan array binding signal (z-score): 1.07
[14]
  glycan array binding signal (z-score): -0.388
[15]
  glycan array binding signal (z-score): -1.2
[16]
  glycan array binding signal (z-score): -1.71
[17]
  glycan array binding signal (z-score): -1.19
[18]
  glycan array binding signal (z-score): -0.8
[19]
  glycan array binding signal (z-score): -0.1
[20]
  glycan array binding signal (z-score): 0.433
[21]
  glycan array binding signal (z-score): 0.152
[22]
  glycan array binding signal (z-score): -0.766
[23]
  glycan array binding signal (z-score): 3.3
[24]
  glycan array binding signal (z-score): 2.87
[25]
  glycan array binding signal (z-score): 3
[26]
  glycan array binding signal (z-score): -0.713
[27]
  glycan array binding signal (z-score): 1.44
[28]
  glycan array binding signal (z-score): -0.154
[29]
  glycan array binding signal (z-score): -0.441
[30]
  glycan array binding signal (z-score): -0.157
[31]
  glycan array binding signal (z-score): 0.485
[32]
  glycan array binding signal (z-score): 0.236
[33]
  glycan array binding signal (z-score): -0.736
Neu5Ac(a2-6)GalNAc
  glycan array binding signal (z-score): -0.48
[34]
  glycan array binding signal (z-score): -1.71
[35]
  glycan array binding signal (z-score): 0.413
[36]
  glycan array binding signal (z-score): -0.636
